# The supplement of paper PMC12889115
# The other results are listed elsewhere or left out. These are raw signals, not scaled to a control.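 In the initial screen, polymyxin B was used at a concentration that permeabilizes Salmonella's outer membrane but not its inner membrane. Maximum growth was set by DMSO wells with or without polymyxin B. Since plates varied, data were ranked per plate, and compounds giving the lowest OD600 advanced as hits.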
# Tested on: Salmonella enterica serovar Typhimurium SL1344
# Assay: bacterial growth OD600 after 18 h with compound and polymyxin B; higher = more bacterial growth (less inhibition)
# Details: 50 µM, Mueller-Hinton broth
Structure (SMILES),bacterial growth OD600 (polymyxin B 1 µg/mL),bacterial growth OD600 (polymyxin B 0.75 µg/mL)
CCCN(CC1CCCO1)c1ccc(-c2nc(COC)no2)cn1 (centres undefined),0.949,
CC#CCN1C(=O)NC(CCc2ccccc2)(C2CCN(Cc3ccc(OC)cc3O)CC2)C1=O (centres undefined),,0.731
CCC1CN(C(=O)c2ccc(NC)nc2)CCN1C(C)C (centres undefined),,0.816
O=C(CCc1ccco1)NCc1cccnc1-n1cnc2ccccc21,0.862,
C=CCC(=O)N1CCC(C(=O)Nc2cccc(-c3cccc(Cl)c3)c2)CC1,0.764,
CCN1CCN(C(=O)c2ccc3oc(-c4cccc(F)c4)nc3c2)CC1,,0.798
COc1ccc(CN(C)C(=O)CCC2(Cc3ccc(Cl)cc3)CCC(=O)N2)cc1OC (centres undefined),,0.909
O=C(NCc1ccco1)NC1CC(=O)N(CCCc2ccccc2)C1 (centres undefined),0.861,
COc1ccc(CC2(CCC(=O)NCCc3ccccc3C(F)(F)F)CCC(=O)N2)c2ccccc12 (centres undefined),,-0.019
